The target in assay [1] is T1, Toll-7-3×Flag (native Toll-7) (Drosophila melanogaster) (UniProt Q7KIN0).
T1 sequence: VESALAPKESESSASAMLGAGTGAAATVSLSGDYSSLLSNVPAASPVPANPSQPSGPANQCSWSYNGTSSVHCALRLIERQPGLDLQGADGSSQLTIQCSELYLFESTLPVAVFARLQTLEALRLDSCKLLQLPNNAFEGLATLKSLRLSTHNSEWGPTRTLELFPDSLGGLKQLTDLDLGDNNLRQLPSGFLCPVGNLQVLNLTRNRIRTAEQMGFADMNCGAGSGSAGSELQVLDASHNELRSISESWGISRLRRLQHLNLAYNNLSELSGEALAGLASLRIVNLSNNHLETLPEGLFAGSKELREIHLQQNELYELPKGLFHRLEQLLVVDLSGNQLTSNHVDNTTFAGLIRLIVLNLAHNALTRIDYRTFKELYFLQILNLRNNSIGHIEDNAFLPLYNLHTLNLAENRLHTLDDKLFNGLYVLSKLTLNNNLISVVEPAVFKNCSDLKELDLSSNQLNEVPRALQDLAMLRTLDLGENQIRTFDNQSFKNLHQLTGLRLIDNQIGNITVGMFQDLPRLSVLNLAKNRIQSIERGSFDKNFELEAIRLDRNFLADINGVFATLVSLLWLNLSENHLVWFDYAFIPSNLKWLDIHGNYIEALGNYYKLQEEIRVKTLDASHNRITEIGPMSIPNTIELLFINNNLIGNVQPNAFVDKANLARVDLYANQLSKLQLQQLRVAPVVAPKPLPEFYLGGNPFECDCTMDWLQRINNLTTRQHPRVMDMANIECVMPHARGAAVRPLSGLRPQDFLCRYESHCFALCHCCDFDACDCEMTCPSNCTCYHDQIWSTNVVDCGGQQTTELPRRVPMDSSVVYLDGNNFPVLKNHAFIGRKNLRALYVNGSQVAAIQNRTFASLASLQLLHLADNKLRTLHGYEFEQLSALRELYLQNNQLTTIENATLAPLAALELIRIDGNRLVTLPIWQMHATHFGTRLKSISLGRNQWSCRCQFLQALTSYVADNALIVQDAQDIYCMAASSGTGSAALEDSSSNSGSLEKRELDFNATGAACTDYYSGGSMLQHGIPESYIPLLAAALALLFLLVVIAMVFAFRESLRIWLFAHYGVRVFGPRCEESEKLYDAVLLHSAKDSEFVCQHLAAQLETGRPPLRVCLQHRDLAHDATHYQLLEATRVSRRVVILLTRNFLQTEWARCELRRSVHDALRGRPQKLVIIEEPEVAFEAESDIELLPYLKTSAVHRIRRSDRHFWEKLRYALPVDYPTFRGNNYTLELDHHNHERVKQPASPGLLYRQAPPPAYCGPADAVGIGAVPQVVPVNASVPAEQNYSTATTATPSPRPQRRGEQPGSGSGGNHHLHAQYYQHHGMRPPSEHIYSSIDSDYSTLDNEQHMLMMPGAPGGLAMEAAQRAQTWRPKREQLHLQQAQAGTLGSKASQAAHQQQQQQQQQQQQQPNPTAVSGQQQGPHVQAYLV
The assay can be described thus: co-IP; S2 cells cotransfected, collected 48 h after transfection, lysed in NP-40 buffer or Flag affinity chromatography buffer; the Flag-tagged protein precipitated with anti-Flag antibody-conjugated agarose or magnetic beads; Western blot. A general note: A western blot detects proteins with antibodies after separation by electrophoresis.

Assay [2] concerns the target T2, Toll-6-3×Flag (native Toll-6) (Drosophila melanogaster) (UniProt Q9VUN0).
T2 sequence: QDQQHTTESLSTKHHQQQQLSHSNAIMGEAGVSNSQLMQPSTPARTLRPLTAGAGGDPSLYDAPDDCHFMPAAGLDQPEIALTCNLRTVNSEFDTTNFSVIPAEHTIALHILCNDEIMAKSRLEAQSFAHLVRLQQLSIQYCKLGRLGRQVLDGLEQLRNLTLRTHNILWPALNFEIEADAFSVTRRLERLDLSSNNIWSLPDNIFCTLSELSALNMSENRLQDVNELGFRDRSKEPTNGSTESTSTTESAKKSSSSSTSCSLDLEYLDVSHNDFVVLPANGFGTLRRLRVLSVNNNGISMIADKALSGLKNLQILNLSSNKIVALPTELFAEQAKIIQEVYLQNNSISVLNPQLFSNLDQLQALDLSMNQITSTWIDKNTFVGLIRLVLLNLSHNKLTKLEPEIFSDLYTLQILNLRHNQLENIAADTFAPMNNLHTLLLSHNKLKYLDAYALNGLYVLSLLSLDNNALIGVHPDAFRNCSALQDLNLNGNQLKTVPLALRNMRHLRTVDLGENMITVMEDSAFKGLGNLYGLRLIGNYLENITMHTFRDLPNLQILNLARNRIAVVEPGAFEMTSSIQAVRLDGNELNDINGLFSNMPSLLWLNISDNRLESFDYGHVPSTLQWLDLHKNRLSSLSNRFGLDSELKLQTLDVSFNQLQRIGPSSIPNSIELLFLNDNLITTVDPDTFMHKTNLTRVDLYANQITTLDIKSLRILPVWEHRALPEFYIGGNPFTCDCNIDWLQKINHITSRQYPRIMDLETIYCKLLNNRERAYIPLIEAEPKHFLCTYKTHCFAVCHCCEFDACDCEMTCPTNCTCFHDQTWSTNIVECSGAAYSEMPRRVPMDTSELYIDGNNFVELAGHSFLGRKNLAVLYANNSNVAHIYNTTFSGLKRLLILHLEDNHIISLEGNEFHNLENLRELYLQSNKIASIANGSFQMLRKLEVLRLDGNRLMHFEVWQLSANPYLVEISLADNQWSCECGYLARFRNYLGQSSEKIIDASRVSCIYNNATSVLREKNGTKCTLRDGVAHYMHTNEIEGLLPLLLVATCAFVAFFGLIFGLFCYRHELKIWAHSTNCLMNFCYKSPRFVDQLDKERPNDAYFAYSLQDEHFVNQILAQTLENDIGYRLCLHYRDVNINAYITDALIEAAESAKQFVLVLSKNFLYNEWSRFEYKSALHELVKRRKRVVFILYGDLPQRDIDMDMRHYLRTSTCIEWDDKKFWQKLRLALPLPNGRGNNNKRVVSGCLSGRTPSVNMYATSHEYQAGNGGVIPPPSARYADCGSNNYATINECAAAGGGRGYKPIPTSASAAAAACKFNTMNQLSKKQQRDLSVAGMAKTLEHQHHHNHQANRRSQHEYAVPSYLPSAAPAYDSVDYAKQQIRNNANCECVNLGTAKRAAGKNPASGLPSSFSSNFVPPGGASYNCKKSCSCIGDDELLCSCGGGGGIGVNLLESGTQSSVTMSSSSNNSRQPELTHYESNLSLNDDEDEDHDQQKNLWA
Described as above.

The target in assay [3] is T3, MyD88-V5 (Drosophila melanogaster) (UniProt Q7K105).
T3 sequence: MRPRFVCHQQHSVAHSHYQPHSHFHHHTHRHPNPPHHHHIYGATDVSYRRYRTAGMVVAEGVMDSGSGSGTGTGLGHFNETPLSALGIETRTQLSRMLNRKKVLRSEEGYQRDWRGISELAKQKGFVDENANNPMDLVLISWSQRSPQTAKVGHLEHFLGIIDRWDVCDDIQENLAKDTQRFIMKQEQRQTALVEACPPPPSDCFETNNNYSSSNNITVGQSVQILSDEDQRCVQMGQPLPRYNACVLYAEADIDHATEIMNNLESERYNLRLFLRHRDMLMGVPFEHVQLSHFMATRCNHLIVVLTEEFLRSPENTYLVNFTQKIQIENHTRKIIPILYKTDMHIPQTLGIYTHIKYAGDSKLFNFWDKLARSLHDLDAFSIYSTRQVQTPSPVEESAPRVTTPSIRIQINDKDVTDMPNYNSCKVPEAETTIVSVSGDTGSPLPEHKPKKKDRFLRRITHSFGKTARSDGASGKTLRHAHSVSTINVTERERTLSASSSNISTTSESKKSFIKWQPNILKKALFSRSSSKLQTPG
Kind of assay: co-IP; S2 cells cotransfected with MyD88-V5 and dsarm-3×HA; MyD88 precipitated (mouse anti-V5 with protein-A/G magnetic beads); Western blot.

We go through 2 molecules from publication PMC5412559.

Results are given in words; binding and its absence hold for the method and conditions named. In cells and extracts the contact can be indirect. Some entries that bind do so weakly or less than the wild type. Sequences can lack the tags named with a protein.

B1: MyD88-V5 (protein, UniProt Q7K105 1-537)
chain: T3 sequence
Take B1: the binding result in assay [1] and in assay [2] was “binds” throughout.

B2: dSarm-3×HA (protein, UniProt Q6IDD9 1-1360)
chain: MKAAEIKRDLTNIQKSMSEINDLAKERITGGPGSISTTSASAITAPSTMSQTTTSRLAPKLTSAHPSIDDLRGLSRQDKITQLQKKIRASFENLVDHDDSNVIVTLPDDDDCPHNHFGSGLNLTHPTAAQLSASGLSGSSKTIDTIKFQEKSMKTESKTKVVTDGFSSEQATSNSAEMKRLQAGDIDYQESKGASAMRNRLEVDGVKTEENAAVIKEALSLRTGDITQQASNNVAASSITVQSENFSADKKAISQSQQSQTMTSNGIISQEKHVSSASQANYSMSHKGVSSTGSSMITSSSQMSAMNGQMLKLADLKLDDLKSLTAGSGQQEIEQTINKYSNMLTSIVSSLQEDERGGSAITVHDVGGKKSQYLEKINEVIRRAWAVPTHGHELGYSLCNSLRQSGGLDLLMKNCVKPDLQFSSAQLLEQCLTTENRKHVVDNGLDKVVNVACVCTKNSNMEHSRVGTGILEHLFKHSEGTCSDVIRLGGLDAVLFECRTSDLETLRHCASALANLSLYGGAENQEEMILRKVPMWLFPLAFHNDDNIKYYACLAIAVLVANKEIEAEVLKSGCLDLVEPFVTSHDPSAFARSNLAHAHGQSKHWLKRLVPVLSSNREEARNLAAFHFCMEAGIKREQGNTDIFREINAIEALKNVASCPNAIASKFAAQALRLIGETVPHKLSQQVPLWSVEDVQEWVKQIGFNDYIDKFNESQVDGDLLLKLNQDNLRADIGIGNGILLKRFERELQNLKRMADYSSKDTAKMHQFLSEIGTDYCTYTYAMLNAGIDKCALPHVNEDMLMTECGIHNSIHRLRILNAVKNLENSLPSSSEENMAKTLDVFVSYRRSNGSQLASLLKVHLQLRGFSVFIDVERLEAGKFDNGLLNSIRQAKNFVLVLTPDALHRCINDEDCKDWVHREIVAALNSNCNIIPIIDQQFDWPEVERLPEDMRSVAHFNGVNWIHDYQDACIDKLERFLRGEKNIDRIAAMVPGTPGSVSYQRMHSNDSDYQSGGAGAGSGAGTGGGGGGGVTGSVVDGLMVAANGSGQANHQANRYRQSPSPARQRGSTSQLSGYSRAPSKRSQILTPYRTQQAALLHKTGAGSASMQNMMPLAYLPPRRSSAAGLGHGSGSGMGSGYRSHSVDGLLDQAGSTPEQRIAAAAAKVTAGSTALTNASSTSTLQPEEEVTDAALNDSVTRRDKHTLSPPGNVQQHRKSRSLDHILSKQTLAELLPPSSELADGTQSMQNLAIPMTPQPQRRDTSSSSKSPTPERPPQPAMERVRERQSPEGVSATESEREDQPEECLRHGNQQRASASVHRGASLTSNKTSNSSLGSNFSAGGNNKTIFNRTMKKVRSLIKKP
For the molecule B2, in assay [3], the binding entry is given as “binds”.
